Drawing on the supplement of paper PMC7752906, this text covers Mahalanobis distance for 48 molecules.

The structures appear in SMILES notation. Structures can show the parent of a compound that is named as a salt. The list shows a part of the results. This data set is noisy: repeats of one test often differ as much as different tests do.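 Wells held roughly 40 S. mansoni schistosomula, imaged in bright field over time against wells given 0.1% DMSO. The paper defines hits as drugs with a Mahalanobis distance of at least 2.47, three standard deviations above the DMSO control mean. Degeneracy is the proportion of worms classified as opaque.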

In this assay the test system is Schistosoma mansoni schistosomula. Nature of the assay: Mahalanobis distance of static-rate-frequency phenotype descriptors from DMSO controls (dimensionless); higher = stronger phenotypic change versus DMSO. Conditions: 10 µM; 72 h.
With `CCC1(C)CC(=O)NC1=O` (stereo not drawn) [Ethosuximide], the Mahalanobis distance is inactive: 1.8.

For the molecule `CCCNC(C)(C)COC(=O)c1ccccc1` [Meprylcaine Hydrochloride], the Mahalanobis distance is inactive: 1.8.

On to `CN(C)CCOC(=O)C(c1ccccc1)C1(O)CCCC1` (stereo not drawn) [Cyclopentolate Hydrochloride], for which the Mahalanobis distance is active: 4.95.

For `Nc1nc(/C(=C/CC(=O)O)C(=O)N[C@@H]2C(=O)N3C(C(=O)O)=CCS[C@H]23)cs1` [Ceftibuten], the Mahalanobis distance was inactive: 1.57.

Turning to `Nc1ccc(C(=O)O)c(O)c1` [Aminosalicylic Acid], the Mahalanobis distance was inactive: 1.79.

In the case of `CCCCN1CCCC[C@H]1C(=O)Nc1c(C)cccc1C` [Levobupivacaine], the Mahalanobis distance was inactive: 2.31.

Regarding `O=C1O[C@H]([C@@H](O)CO)C(O)=C1O` [Ascorbic Acid], the Mahalanobis distance is active: 4.33.

For the molecule `Clc1ccc(C(c2ccccc2Cl)C(Cl)Cl)cc1` (stereo not drawn) [Mitotane], the Mahalanobis distance was active: 3.1.

On to `O=C(O)c1ccccc1Nc1cccc(C(F)(F)F)c1` [Flufenamic Acid], for which the Mahalanobis distance is inactive: 1.9.

Regarding `CC(=O)Nc1ccc(S(=O)(=O)c2ccc(NC(C)=O)cc2)cc1` [Acedapsone], the Mahalanobis distance is inactive: 1.73.

Turning to `OC(CCN1CCCCC1)(c1ccccc1)c1ccccc1` [Pridinol], the Mahalanobis distance is active: 3.29.

Regarding `CCCCC(=O)N(Cc1ccc(-c2ccccc2-c2nnn[nH]2)cc1)[C@H](C(=O)O)C(C)C` [Valsartan], the Mahalanobis distance was inactive: 1.58.

As for `CCN(CC)CCNC(=O)c1cc(Br)c(N)cc1OC` [Bromopride], the Mahalanobis distance is inactive: 1.48.

Take `OC[C@H]1O[C@@H](O[C@H]2[C@H](O)[C@@H](O)C(O)O[C@@H]2CO)[C@H](O)[C@@H](O)[C@H]1O` (stereo partly drawn) [Lactose Monohydrate]: the Mahalanobis distance is inactive: 2.05.

Take `CC(C)(C)NC[C@H](O)COc1cccc2c1CCCC2=O` [Levobunolol Hydrochloride]: the Mahalanobis distance is inactive: 1.01.

On to `CC(C)(C)NC[C@H](O)COc1cccc2c1CCCC2=O` [Levobunolol], for which the Mahalanobis distance was active: 2.58.

`C[N+](C)(C)CCOC(N)=O` [Carbachol]: the Mahalanobis distance was inactive: 1.7.

Turning to `O=C(NC(Cc1cc(=O)[nH]c2ccccc12)C(=O)O)c1ccc(Cl)cc1` (stereo not drawn) [Rebamipide], the Mahalanobis distance was inactive: 1.34.

With `O=C1c2c(O)ccc(O)c2C(=O)c2c(NCCNCCO)ccc(NCCNCCO)c21` [Mitoxantrone], the Mahalanobis distance was active: 4.67.

On to `C[C@H](CCC(=O)O)[C@H]1CC[C@H]2[C@@H]3C(=O)C[C@@H]4CC(=O)CC[C@]4(C)[C@H]3CC(=O)[C@]12C` [Dehydrocholic Acid], for which the Mahalanobis distance is inactive: 1.78.

As for `N[C@@H](Cc1ccc(O)c(O)c1)C(=O)O` [Levodopa], the Mahalanobis distance was inactive: 1.36.

Regarding `CN1CCN2c3ccccc3Cc3ccccc3C2C1` (stereo not drawn) [Mianserin], the Mahalanobis distance was inactive: 1.84.

For the molecule `O=C(O)CCC(=O)c1ccc(-c2ccccc2)cc1` [Fenbufen], the Mahalanobis distance was inactive: 1.24.

Regarding `Cc1cccc(N(C)C(=S)Oc2ccc3ccccc3c2)c1` [Tolnaftate], the Mahalanobis distance is active: 3.01.

As to `O=c1[nH]c(=O)n([C@H]2C[C@H](O)[C@@H](CO)O2)cc1I` [Idoxuridine], the Mahalanobis distance was active: 2.49.

For the molecule `O=C(O)c1cccnc1` [Niacin], the Mahalanobis distance was inactive: 1.81.

For `CCN1CCCC1CNC(=O)c1cc(S(N)(=O)=O)ccc1OC` (stereo not drawn) [Sulpiride], the Mahalanobis distance is active: 2.5.

For `CC1(C)O[C@@H]2C[C@H]3[C@@H]4C[C@H](F)C5=CC(=O)CC[C@]5(C)[C@H]4[C@@H](O)C[C@]3(C)[C@]2(C(=O)CO)O1` [Flurandrenolide], the Mahalanobis distance was inactive: 1.74.

For `O=c1cc[nH]c(=O)[nH]1` [Uracil], the Mahalanobis distance was inactive: 1.55.

As for `CCC[C@@H]1C[C@@H](C(=O)N[C@@H]([C@H]2O[C@H](SC)[C@H](O)[C@@H](O)[C@H]2O)[C@@H](C)O)N(C)C1` [Lincomycin], the Mahalanobis distance is inactive: 1.81.

Consider `CC/C=C\C/C=C\C/C=C\C/C=C\C/C=C\C/C=C\CCC(=O)O` [Doconexent], for which the Mahalanobis distance is inactive: 1.59.

Regarding `CCOc1ccc(Cc2nccc3cc(OCC)c(OCC)cc23)cc1OCC` [Ethaverine Hydrochloride], the Mahalanobis distance is inactive: 2.33.

In the case of `O=C(Nc1ccc([N+](=O)[O-])cc1Cl)c1cc(Cl)ccc1O` [niclosamide], the Mahalanobis distance is inactive: 2.23.

Regarding `C#C[C@]1(O)CC[C@H]2[C@@H]3CCC4=Cc5oncc5C[C@]4(C)[C@H]3CC[C@@]21C` [Danazol], the Mahalanobis distance was active: 2.96.

Regarding `CC(CN(C)C)CN1c2ccccc2CCc2ccccc21` (stereo not drawn) [Trimipramine], the Mahalanobis distance was inactive: 2.22.

On to `OC(CCN1CCCC1)(c1ccccc1)C1CCCCC1` (stereo not drawn) [Procyclidine], for which the Mahalanobis distance is inactive: 2.46.

In the case of `CC(C)NCC(O)COc1cccc2[nH]ccc12` (stereo not drawn) [Pindolol], the Mahalanobis distance is inactive: 1.81.

As to `C[N+](C)(C)C[C@H](O)CC(=O)[O-]` [Levocarnitine], the Mahalanobis distance is active: 3.72.

With `CC(C)C(=O)c1c(C(C)C)nn2ccccc12` [Ibudilast], the Mahalanobis distance was inactive: 2.09.

As for `C=C1CC[C@H](O)C/C1=C/C=C1\CCC[C@]2(C)[C@@H]([C@H](C)/C=C/[C@H](C)C(C)C)CC[C@@H]12` [Ergocalciferol], the Mahalanobis distance is inactive: 2.

Regarding `CC(C)(C)NC(=O)[C@H]1CC[C@H]2[C@@H]3CC[C@H]4NC(=O)C=C[C@]4(C)[C@H]3CC[C@]12C` [Finasteride], the Mahalanobis distance was active: 3.08.

In the case of `CC(C)(C)CC(C)(C)c1ccc(OCCOCC[N+](C)(C)Cc2ccccc2)cc1` [Benzethonium Chloride], the Mahalanobis distance is inactive: 2.09.

`Cn1nnc2c(C(N)=O)ncn2c1=O` [Temozolomide]: the Mahalanobis distance is inactive: 1.98.

Consider `CCCCOc1ccc(C(=O)CCN2CCCCC2)cc1` [Dyclonine Hydrochloride], for which the Mahalanobis distance is inactive: 1.75.

Regarding `CC(=O)OCC(=O)[C@@]1(O)CC[C@H]2[C@@H]3CCC4=CC(=O)C=C[C@]4(C)[C@H]3[C@@H](O)C[C@@]21C` [Prednisolone Acetate], the Mahalanobis distance was inactive: 1.72.

On to `NCCc1ccc(O)c(O)c1` [Dopamine Hydrochloride], for which the Mahalanobis distance was inactive: 2.01.

For the molecule `CC1(C)O[C@@H]2C[C@H]3[C@@H]4C[C@H](F)C5=CC(=O)C=C[C@]5(C)[C@H]4[C@@H](O)C[C@]3(C)[C@]2(C(=O)CO)O1` [Flunisolide], the Mahalanobis distance was inactive: 2.4.

For the molecule `CN(Cc1cc(Br)cc(Br)c1N)C1CCCCC1` [Bromhexine], the Mahalanobis distance was active: 2.58.
